Test results: article PMC5873885
Results are given in words; binding and its absence hold for the method and conditions named. In cells and extracts the contact can be indirect. Some binding calls cover weakened binding; strength is not graded here.

The chains behind the UniProt entries cited, without tags or fusion partners. Where a name states a change or a piece, a line headed by the entry shows the natural chain unless it says otherwise. A line that says so, or that is headed by a name, gives the form on record, which may keep a tag or linker.
UniProt Q969H0: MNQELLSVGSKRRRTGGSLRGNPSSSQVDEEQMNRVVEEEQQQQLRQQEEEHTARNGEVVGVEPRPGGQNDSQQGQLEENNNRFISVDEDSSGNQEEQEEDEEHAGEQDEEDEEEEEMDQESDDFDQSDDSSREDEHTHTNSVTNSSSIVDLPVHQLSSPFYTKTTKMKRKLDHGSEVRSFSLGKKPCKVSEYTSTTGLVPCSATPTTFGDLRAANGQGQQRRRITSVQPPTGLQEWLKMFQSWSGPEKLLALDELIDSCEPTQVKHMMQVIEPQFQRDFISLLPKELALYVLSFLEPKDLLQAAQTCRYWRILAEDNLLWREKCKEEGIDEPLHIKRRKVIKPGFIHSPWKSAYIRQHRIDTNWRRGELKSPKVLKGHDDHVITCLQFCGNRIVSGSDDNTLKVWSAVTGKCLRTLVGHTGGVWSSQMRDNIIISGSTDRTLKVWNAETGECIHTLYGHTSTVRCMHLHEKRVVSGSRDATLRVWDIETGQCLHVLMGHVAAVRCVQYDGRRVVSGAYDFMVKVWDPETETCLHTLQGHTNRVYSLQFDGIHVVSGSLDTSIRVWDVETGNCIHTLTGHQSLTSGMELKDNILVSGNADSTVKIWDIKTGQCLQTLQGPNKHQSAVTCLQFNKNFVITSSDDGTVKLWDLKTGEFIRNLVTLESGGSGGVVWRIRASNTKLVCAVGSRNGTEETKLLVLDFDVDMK
Flag-tagged FBW7β (Q969H0, form named): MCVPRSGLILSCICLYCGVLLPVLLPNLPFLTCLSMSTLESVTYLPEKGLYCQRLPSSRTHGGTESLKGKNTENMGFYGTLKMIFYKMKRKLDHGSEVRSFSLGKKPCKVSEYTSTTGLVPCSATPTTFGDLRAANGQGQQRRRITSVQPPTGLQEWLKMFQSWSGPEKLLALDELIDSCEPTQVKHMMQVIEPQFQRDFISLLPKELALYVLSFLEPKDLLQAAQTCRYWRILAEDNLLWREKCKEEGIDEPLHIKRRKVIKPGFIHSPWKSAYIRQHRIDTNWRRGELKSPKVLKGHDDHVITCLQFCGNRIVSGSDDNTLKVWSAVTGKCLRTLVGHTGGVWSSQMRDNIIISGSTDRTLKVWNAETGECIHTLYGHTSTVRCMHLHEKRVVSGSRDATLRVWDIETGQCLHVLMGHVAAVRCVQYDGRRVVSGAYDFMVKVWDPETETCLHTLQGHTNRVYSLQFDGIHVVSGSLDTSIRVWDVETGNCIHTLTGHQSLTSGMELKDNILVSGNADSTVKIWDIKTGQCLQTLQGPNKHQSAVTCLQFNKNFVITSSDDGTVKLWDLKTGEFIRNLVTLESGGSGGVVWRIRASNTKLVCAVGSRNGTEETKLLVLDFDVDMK
Flag-tagged FBW7γ (Q969H0, form named): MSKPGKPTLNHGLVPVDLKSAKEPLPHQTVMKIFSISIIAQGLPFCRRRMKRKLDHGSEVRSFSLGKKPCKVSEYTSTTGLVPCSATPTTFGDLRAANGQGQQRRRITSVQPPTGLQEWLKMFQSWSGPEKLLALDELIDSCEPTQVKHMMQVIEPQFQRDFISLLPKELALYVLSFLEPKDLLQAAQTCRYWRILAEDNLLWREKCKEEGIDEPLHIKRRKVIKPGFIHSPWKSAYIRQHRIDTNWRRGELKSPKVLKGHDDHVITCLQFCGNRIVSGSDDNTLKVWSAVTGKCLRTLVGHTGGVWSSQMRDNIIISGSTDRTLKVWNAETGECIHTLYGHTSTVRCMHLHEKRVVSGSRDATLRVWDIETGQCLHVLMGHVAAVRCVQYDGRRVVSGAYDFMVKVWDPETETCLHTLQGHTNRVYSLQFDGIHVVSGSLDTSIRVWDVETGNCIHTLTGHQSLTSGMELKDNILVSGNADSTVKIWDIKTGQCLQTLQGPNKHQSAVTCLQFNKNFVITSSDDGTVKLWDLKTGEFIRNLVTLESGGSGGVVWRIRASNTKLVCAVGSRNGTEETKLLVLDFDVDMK
UniProt Q93008: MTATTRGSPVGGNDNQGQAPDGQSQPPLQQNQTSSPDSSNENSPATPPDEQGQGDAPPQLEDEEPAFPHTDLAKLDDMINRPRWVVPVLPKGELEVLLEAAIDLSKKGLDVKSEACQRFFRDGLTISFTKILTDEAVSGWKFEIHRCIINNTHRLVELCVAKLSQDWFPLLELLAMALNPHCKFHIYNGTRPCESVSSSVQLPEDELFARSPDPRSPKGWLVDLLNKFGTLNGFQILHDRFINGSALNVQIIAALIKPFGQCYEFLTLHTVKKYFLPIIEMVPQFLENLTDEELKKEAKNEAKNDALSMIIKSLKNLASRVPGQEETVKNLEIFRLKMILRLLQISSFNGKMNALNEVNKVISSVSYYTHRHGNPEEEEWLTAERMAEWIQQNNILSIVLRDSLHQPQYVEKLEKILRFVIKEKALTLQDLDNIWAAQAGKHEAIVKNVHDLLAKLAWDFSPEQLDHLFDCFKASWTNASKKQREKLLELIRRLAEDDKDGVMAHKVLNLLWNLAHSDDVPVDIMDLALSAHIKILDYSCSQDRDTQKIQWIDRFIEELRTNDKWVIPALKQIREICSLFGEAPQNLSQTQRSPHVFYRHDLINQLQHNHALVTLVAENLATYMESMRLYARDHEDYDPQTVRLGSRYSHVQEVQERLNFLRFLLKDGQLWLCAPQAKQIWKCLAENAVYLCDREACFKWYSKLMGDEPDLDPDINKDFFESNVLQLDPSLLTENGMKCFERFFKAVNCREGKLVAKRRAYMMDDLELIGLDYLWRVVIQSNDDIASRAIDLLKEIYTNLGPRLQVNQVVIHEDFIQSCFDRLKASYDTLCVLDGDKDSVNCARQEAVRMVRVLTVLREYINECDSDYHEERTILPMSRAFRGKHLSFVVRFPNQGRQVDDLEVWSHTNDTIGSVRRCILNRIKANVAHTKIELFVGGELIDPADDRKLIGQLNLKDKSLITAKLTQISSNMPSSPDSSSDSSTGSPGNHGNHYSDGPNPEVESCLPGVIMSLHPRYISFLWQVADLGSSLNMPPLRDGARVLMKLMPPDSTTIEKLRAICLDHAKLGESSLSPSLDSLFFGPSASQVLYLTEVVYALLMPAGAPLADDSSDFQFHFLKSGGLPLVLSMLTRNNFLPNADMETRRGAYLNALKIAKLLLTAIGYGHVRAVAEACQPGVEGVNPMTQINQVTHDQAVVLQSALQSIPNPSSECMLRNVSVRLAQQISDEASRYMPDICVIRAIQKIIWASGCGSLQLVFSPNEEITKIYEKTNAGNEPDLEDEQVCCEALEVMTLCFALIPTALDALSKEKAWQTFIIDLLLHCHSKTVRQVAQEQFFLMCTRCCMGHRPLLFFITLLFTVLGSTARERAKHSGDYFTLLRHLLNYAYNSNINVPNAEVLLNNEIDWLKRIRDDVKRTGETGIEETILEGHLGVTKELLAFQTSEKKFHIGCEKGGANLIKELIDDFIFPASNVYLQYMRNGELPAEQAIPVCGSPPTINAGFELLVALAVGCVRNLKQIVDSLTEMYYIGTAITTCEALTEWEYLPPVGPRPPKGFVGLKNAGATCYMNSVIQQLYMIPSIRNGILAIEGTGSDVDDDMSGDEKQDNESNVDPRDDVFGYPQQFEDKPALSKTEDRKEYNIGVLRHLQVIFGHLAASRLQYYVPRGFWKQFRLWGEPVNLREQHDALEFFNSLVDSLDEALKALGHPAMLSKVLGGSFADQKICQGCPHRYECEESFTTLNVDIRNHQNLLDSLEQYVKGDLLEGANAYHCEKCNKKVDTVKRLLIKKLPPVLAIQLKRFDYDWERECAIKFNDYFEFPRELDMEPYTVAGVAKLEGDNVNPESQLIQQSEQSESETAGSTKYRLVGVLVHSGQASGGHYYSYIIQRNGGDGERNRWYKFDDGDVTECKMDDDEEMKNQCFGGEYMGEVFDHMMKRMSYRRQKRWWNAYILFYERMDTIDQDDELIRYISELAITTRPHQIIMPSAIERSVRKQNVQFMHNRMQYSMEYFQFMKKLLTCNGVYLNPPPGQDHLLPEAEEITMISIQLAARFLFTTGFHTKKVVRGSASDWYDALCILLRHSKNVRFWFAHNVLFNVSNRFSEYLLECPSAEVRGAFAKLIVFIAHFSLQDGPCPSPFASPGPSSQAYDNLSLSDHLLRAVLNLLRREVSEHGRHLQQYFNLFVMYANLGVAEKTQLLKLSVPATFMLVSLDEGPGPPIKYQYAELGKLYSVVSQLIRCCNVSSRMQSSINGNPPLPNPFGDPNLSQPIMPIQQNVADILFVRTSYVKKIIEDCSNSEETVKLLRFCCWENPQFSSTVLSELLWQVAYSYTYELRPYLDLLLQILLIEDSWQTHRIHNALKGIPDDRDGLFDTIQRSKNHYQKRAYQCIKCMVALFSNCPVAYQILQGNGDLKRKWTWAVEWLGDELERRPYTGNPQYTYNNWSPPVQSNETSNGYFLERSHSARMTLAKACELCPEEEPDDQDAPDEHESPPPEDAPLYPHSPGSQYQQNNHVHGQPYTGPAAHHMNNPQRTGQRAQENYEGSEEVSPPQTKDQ

Tests used:
[1] = target: FBW7 (endogenous, HEK293; precipitated or detected with an FBW7α-specific antibody) (human (endogenous in HEK293)) (UniProt Q969H0); test: co-IP; immunoprecipitation of endogenous FBW7 from HEK293 cells, Western blot for endogenous USP9X; siFBW7 as negative control
Flag-tagged FBW7α = Flag-tagged FBW7α (UniProt Q969H0); test: co-IP; Flag-tagged FBW7α, -β or -γ overexpressed in HEK293 cells; interaction with endogenous USP9X
Flag-tagged FBW7β = Flag-tagged FBW7β (UniProt Q969H0); test: as above
Flag-tagged FBW7γ = Flag-tagged FBW7γ (UniProt Q969H0); test: as above

USP9X (endogenous, HEK293) (from UniProt Q93008 1-2554) (enzyme)
binding [1]: binds
binding (Flag-tagged FBW7α): binds
binding (Flag-tagged FBW7β): binds
binding (Flag-tagged FBW7γ): no binding
